Data: PubChem BioAssay (EPA / NIEHS)
What follows is the remainder of the data, with few or none of the hits. Results filed as inconclusive are left out. Calls of active or inactive are those of the source. How the source made its calls: active means hit-call score of the fitted dose curve at least 0.9, where 1 is the maximum; inconclusive means response in the unintended direction; inactive means score below 0.9.

assay: ACEA_AR_antagonist_AUC_viability: ACEA Biosciences xCELLigence Real-Time Cell Analysis on Androgen Receptor Antagonism for Viability (AID 2283776);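 further: 22Rv1 human prostate cancer cells growing on impedance electrode plates; area under impedance growth curve at 80 h after dosing as viability; hits lower the growth signal relative to DMSO meaning cytotoxicity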
Procedure, shortened: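 Real-time electrical impedance tracks 22Rv1 proliferation after continuous compound exposure (top 100 uM final, 1:4 steps, 8 concentrations). The 80 h area-under-curve serves as the cytotoxicity readout relative to DMSO.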

Row | SMILES | outcome
1 | COc1ccc(C=O)cc1OC | inactive
2 | CC(C)OC(=O)Nc1ccccc1 | inactive
3 | CCC[CH2][Sn]([Cl])([Cl])[Cl] | inactive
4 | CC(O)CN(CC(C)O)CC(C)O (stereo not given) | inactive
5 | Fc1ccc(C2(Cn3cncn3)OC2c2ccccc2Cl)cc1 (stereo not given) | inactive
6 | CCCCOCCOC(C)=O | inactive
7 | CC1CCCC1.[C-]#[O+].[C-]#[O+].[C-]#[O+].[Mn] | inactive
8 | OCC(O)CCl (stereo not given) | inactive
9 | O=C(O)COc1ccc(Cl)cc1 | inactive
10 | O=S(=O)(c1ccc(O)cc1)c1ccc(O)cc1 | inactive
11 | COc1cc(OC)nc(NC(=O)NS(=O)(=O)c2ncccc2C(=O)N(C)C)n1 | inactive
12 | CCOC(=O)COc1ccc(Cl)cc1Cl | inactive
13 | C=CCN=C=S | inactive
14 | CCOC(=O)c1ccccc1N | inactive
15 | CCOP(=O)(OCC)OCC | inactive
